Paper PMC4969574 (The EMBO Journal, 2016)
These are yes or no findings as the source states them, for the method shown. In cells and extracts the contact can be indirect. These calls come from enrichment with a bait or labelling near it, and not all partners need be listed. Where a sequence is shown, tags or fusion partners need not be part of it.

B1: TssB1, Q9I749 1-172 (protein)
chain: MGSTTSSQKFIARNRAPRVQIEYDVELYGAEKKVQLPFVMGVMADLAGKPAEPQAAVADRKFLEIDVDNFDARLKAMKPRVAFNVPNVLTGEGNLSLDITFESMDDFSPAAVARKVDSLNKLLEARTQLANLLTYMDGKTGAEEMIMKAIKDPALLQALASAPKPKDDEPQA
B2: TssK1 fused to the adenylate cyclase T25 or T18 subunit (natural protein)
chain: MSWNNRVVWSEGMFLRPQHFQQHDRYLETLVDGRCRSLLAGGWGFSELKLDDALLTQGKLAIVSARGVLPDGTPFNIPADDPAPAPLNVEESLRDGIVYLGLPLKRVGTRDTVEEGEALGGARYVSQVQEVRDDNAAFESRAPVALGSQAFRLLTERDGLGEYAAVGVARVREKRADQALSLDEDYLPPVLDIAAAPPLASFAKELLGLLHQRGEALAGRVVASSAGGASEIADFLLLQLVNRAEALTGHLSRVRPLHPQELYRELVALAGEFCTFTASQRRPEEYPVYNHDDLAASFAPVMLALRQALATVIDAKAIAIPIVEKAYGVHVAMLSDRSLIDNASFVLVVRADVPGESLRGHFPQQAKVGSVEHIRDLVNLQLPGIGLLPMPVAPRQIPYHAGSTYFELDRGSAHWKQLTHSGGFAFHIAGQFPGLNLAFWAIRG

Assays:
[1] = molecular target: T1, His6-TssA1 produced in P. aeruginosa (P. aeruginosa), Q9I750; assay: affinity purification with mass spectrometry; His6-TssA1 produced in the P. aeruginosa tssA1 mutant; soluble fraction on Ni-NTA, 25 mM Tris-HCl pH 7.5, 150 mM NaCl, eluted with 300 mM imidazole; LC-MS/MSe; control: strain with empty pBBR vector; settings: remark: other sources report otherwise
T1 chain: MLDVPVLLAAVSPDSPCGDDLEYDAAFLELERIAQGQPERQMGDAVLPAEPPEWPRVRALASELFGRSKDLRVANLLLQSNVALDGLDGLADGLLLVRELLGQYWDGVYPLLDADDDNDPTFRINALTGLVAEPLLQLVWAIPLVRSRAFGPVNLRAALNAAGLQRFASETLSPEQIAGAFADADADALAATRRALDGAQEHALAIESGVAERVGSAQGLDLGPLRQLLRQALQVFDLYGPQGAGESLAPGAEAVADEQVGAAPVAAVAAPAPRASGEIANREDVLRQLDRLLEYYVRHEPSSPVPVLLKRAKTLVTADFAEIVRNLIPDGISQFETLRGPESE

[2] = molecular target: T2, His6-TssA1 produced in P. aeruginosa (P. aeruginosa) (UniProt Q9I750); assay: as above
T2 sequence: T1 chain

| Binder | binding [1] | binding [2] |
| --- | --- | --- |
| B1 | binds | – |
| B2 | – | binds |
